Data as given in PubChem BioAssay AID1259308 (NCATS, 2017).
Purpose: 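Genes whose loss raises luciferase production in HEK293 cells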 (primary screen). Cell system: human HEK293 embryonic kidney cells stably expressing firefly luciferase (HEK-CMV-Luc2-Hygro). Knock-down reagent: single siRNA against human genes, 0.8 pmol siRNA per well. Timing: 72 h. Measured: 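Reporter luminescence and viable-cell signal on separate replicate plates, given as percent of non-targeting control and median/MAD z-scores, plus per-cell luciferase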. Scale: total luciferase, z-score: higher = more reporter protein produced. Active means: 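Active when the median/MAD z-score for overall luciferase is greater than 3; a gene was taken forward for validation with new siRNAs if at least two of its three siRNAs passed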. Meaning of the calls: active = raised luciferase; inactive = no rise.
This is a random part of about 59,000 deposited reagents. About 1,510 of all reagents (2.6%) were called active. 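Calls use total luciferase alone and ignore viability, so some active siRNAs may act by altering cell number.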 Unmarked entries are inactive. Reagents against one gene are numbered here. Further read-outs or replicates are left out here.

For SRY #1 the deposit lists total luciferase, z-score -0.029.
Depletion of SRY #2 came out at: total luciferase, z-score 4.18 (active).
After knock-down of SRY #3 the results were total luciferase, z-score -0.86.
For ZFX #1 the deposit lists total luciferase, z-score 0.116.
Against ZFX #2, the values are total luciferase, z-score 0.699.
Against ZFX #3 the deposit lists total luciferase, z-score -0.24.
Knock-down of SAMD10 #1 gave: total luciferase, z-score -0.152.
For SAMD10 #2, the values are total luciferase, z-score 3.92 (active).
For SAMD10 #3, the entry reads total luciferase, z-score 0.776.
DNAJC10 #1 scored total luciferase, z-score 0.825.
With knock-down of DNAJC10 #2, the record shows total luciferase, z-score -0.319.
Depletion of DNAJC10 #3 came out at: total luciferase, z-score -1.93.
ASB12 #1 gave total luciferase, z-score 1.02.
Against ASB12 #2 the deposit lists total luciferase, z-score 1.2.
For ASB12 #3, the entry reads total luciferase, z-score 1.37.
ITIH3 #1 scored total luciferase, z-score -0.509.
ITIH3 #2 scored total luciferase, z-score 3.63 (active).
ITIH3 #3 gave total luciferase, z-score -0.379.
With knock-down of EVI2A #1, the screen gave total luciferase, z-score 0.0994.
Against EVI2A #2 the deposit lists total luciferase, z-score -1.78.
Depletion of EVI2A #3 gave: total luciferase, z-score -1.6.
SEC16B #1 gave total luciferase, z-score -0.718.
With knock-down of SEC16B #2, the record shows total luciferase, z-score 0.0355.
SEC16B #3 scored total luciferase, z-score -0.114.
Knock-down of ALDH7A1 #1 gave: total luciferase, z-score 1.84.
After knock-down of ALDH7A1 #2, the screen gave total luciferase, z-score -1.79.
Knock-down of ALDH7A1 #3 came out at: total luciferase, z-score 0.368.
Silencing of ABCC10 #1 came out at: total luciferase, z-score -0.138.
With knock-down of ABCC10 #2, the record shows total luciferase, z-score -0.0125.
Depletion of ABCC10 #3 gave: total luciferase, z-score 0.115.
Knock-down of TAAR5 #1 came out at: total luciferase, z-score 1.53.
Silencing of TAAR5 #2 came out at: total luciferase, z-score 0.536.
Depletion of TAAR5 #3 resulted in: total luciferase, z-score -0.281.

No new results follow: entries from further up.
ASB12 #1 — total luciferase, z-score: 1.02
ASB12 #2 — total luciferase, z-score: 1.2
ASB12 #3 — total luciferase, z-score: 1.37
ITIH3 #1 — total luciferase, z-score: -0.509
